Source: patent US20230303491A1, “DONEPEZIL ETHER PALMITATE OR PHARMACEUTICALLY ACCEPTABLE SALT THEREOF” (CHONG KUN DANG PHARMACEUTICAL CORP., priority 2020, published 2023)

Test: Pharmacokinetic evaluation: donepezil concentration in plasma after intramuscular injection of solution phase compositions
Conditions: SD rats
Procedure: The main ingredients of Table 1 above, castor oil, and benzyl benzoate were mixed according to the components and amounts of Table 2 below, and stirred at room temperature for 0.5 to 3 hours to prepare solution phase compositions.
Four male SD rats with an average weight of 300 g were intramuscularly injected with a dose of 4 mg/kg of donepezil in the formulation of donepezil (D) and 40 mg/kg of donepezil each in the DEP, DEM, DEPD, DEHD, and DES formulations, and the concentrations of donepezil in plasma samples of SD rats were analyzed using LC-MS/MS.

## COc1cc2c(cc1OC)C(=O)C(CC1CCN(Cc3ccccc3)CC1)C2 (centres unmarked) [D, 2-((1-benzylpiperidin-4-yl)methyl)-5,6-dimethoxy-2,3-dihydro-1H-inden-1-one, reference compound]
4 mg/kg donepezil
  time until release of the drug was terminated: ≤ 3 days
D 4 mg/kg, DEP 40 mg/kg as donepezil
  release of drug immediately after administration: rapidly released immediately after administration
